Earlier results as cited in patent US20220039380A1, “PEST CONTROL INCLUDING COMBINED MATING DISRUPTION AND TRAPPING” (Trécé Inc., priority 2019, published 2022).
At least one structure is not confirmed: it was looked up by name or label, or the drawing left a doubt.

Test system: Codling Moth (CM) Cydia pomonella
Conditions: pheromone synergists, proven (field demonstrated)

## CCCCC/C=C\C=C\C(=O)OCC [Pear Ester, Ethyl (2,4)(E,Z) decadienoate]
  % increase in Male capture above pheromone alone: “Pear Ester” (180->223%)
